Data taken from the supplement of paper PMC6078165.

Tested on: BT20
Assay: relative JC-1 red fluorescence (viability) vs pre-drug, coculture with fibroblast (fraction); higher = more viable cancer cells
Experimental: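 JC-1 labelled TNBC cells cocultured 1:1 (1,500 cells each) with CellTrace Violet stained primary or stromal fibroblasts in 384-well plates in FluoroBrite medium, treated with one of 42 anticancer drugs at 0.1, 1, 10 or 100 uM. JC-1 red fluorescence (mitochondrial integrity in cancer cells only) was read by plate reader every 8 h for 72 h. Values are normalised to each well's pre-drug value. The stock of one drug was tenfold lower, so its dose labels may be too high.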

O=NN(CCCl)C(=O)NCCCl [Carmustine]
relative JC-1 red fluorescence
Settings	8 h	16 h	24 h	32 h	40 h	48 h	56 h	64 h	72 h
0.1 µM, coculture fibroblast: C12385	0.925	0.833	0.804	0.753	0.699	0.666	0.642	0.627	0.619
0.1 µM, coculture fibroblast: H6013	0.9665	0.939	0.832	0.805	0.781	0.757	0.749	0.733	0.718
0.1 µM, coculture fibroblast: H6019	0.856	0.775	0.748	0.6773	0.628	0.608	0.5772	0.544	0.524
0.1 µM, coculture fibroblast: H6076	0.841	0.921	0.8491	0.8243	0.79094	0.7646	0.763	0.76	0.746
0.1 µM, coculture fibroblast: H6231	0.747	0.9364	0.8089	0.734	0.683	0.636	0.596	0.569	0.539
0.1 µM, coculture fibroblast: HADF	0.887	0.842	0.8472	0.8436	0.799	0.7436	0.714	0.69	0.651
0.1 µM, coculture fibroblast: HCFa	0.946	0.88	0.82	0.779	0.72	0.683	0.654	0.626	0.58
0.1 µM, coculture fibroblast: HCPF	0.869	0.9	0.8075	0.7646	0.7218	0.6929	0.657	0.643	0.61
0.1 µM, coculture fibroblast: HHSteC	0.929	0.855	0.801	0.728	0.671	0.633	0.591	0.564	0.529
0.1 µM, coculture fibroblast: HMF	0.9722	0.871	0.753	0.701	0.661	0.628	0.594	0.571	0.5434
0.1 µM, coculture fibroblast: HPFa	0.93	0.891	0.87	0.769	0.732	0.678	0.638	0.604	0.538
0.1 µM, coculture fibroblast: HUF	0.9007	0.821	0.761	0.676	0.617	0.571	0.544	0.516	0.501
0.1 µM, coculture fibroblast: Hs5	0.836	0.8927	0.836	0.788	0.749	0.726	0.699	0.661	0.616
0.1 µM, coculture fibroblast: Hs27A	0.763	0.848	0.915	0.911	0.868	0.852	0.83	0.806	0.753
0.1 µM, coculture fibroblast: Hs343T	0.977	0.882	0.7488	0.6781	0.63667	0.589	0.5399	0.5238	0.492
0.1 µM, coculture fibroblast: WS1	0.867	0.8	0.726	0.66	0.607	0.583	0.549	0.523	0.513
1 µM, coculture fibroblast: C12385	0.905	0.839	0.828	0.768	0.701	0.685	0.658	0.647	0.641
1 µM, coculture fibroblast: H6013	0.925	0.858	0.871	0.831	0.802	0.796	0.8	0.789	0.776
1 µM, coculture fibroblast: H6019	0.84	0.796	0.819	0.786	0.761	0.763	0.744	0.731	0.715
1 µM, coculture fibroblast: H6076	0.9394	0.8954	0.836	0.796	0.769	0.751	0.762	0.759	0.75
1 µM, coculture fibroblast: H6231	0.983	0.827	0.776	0.725	0.696	0.65	0.624	0.6	0.579
1 µM, coculture fibroblast: HADF	0.9688	0.87	0.831	0.785	0.751	0.711	0.691	0.682	0.65
1 µM, coculture fibroblast: HCFa	0.9206	0.864	0.833	0.776	0.736	0.703	0.682	0.659	0.624
1 µM, coculture fibroblast: HCPF	0.949	0.8841	0.833	0.773	0.738	0.697	0.67	0.648	0.61
1 µM, coculture fibroblast: HHSteC	0.902	0.87	0.863	0.781	0.736	0.701	0.68	0.658	0.635
1 µM, coculture fibroblast: HMF	0.927	0.857	0.774	0.7221	0.688	0.636	0.61	0.587	0.555
1 µM, coculture fibroblast: HPFa	0.95	0.873	0.872	0.788	0.752	0.703	0.675	0.631	0.566
1 µM, coculture fibroblast: HUF	0.903	0.822	0.8	0.731	0.691	0.656	0.639	0.625	0.609
1 µM, coculture fibroblast: Hs5	0.968	0.907	0.858	0.8214	0.8001	0.7632	0.731	0.709	0.686
1 µM, coculture fibroblast: Hs27A	0.812	0.932	0.844	0.825	0.782	0.762	0.738	0.707	0.66
1 µM, coculture fibroblast: Hs343T	0.94	0.859	0.7721	0.7059	0.6362	0.5862	0.5417	0.5113	0.481
1 µM, coculture fibroblast: WS1	0.84031	0.7323	0.675	0.5958	0.5334	0.4962	0.4637	0.4378	0.4242

The reference is the same well before dosing, and untreated signal decays as well.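 Labels refer to human fibroblasts, largely primary: uterine (C12385, HUF), lung (H6013), bone (Hs27A), adrenal (HADF), skin (WS1), plus mammary HMF and breast cancer-associated Hs343T. Cancer lines are basal-like or mesenchymal-like triple-negative breast cancer. The paper counts as hits responses shifting over 3x the replicate standard deviation. The tissue of the other fibroblasts is not given here.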
